The supplement of paper PMC8732350
“And” between values parts separate entries of the source, which are not always exact repeats. Identical values can stand only once. Counter-ions that a name gives are not always drawn. ± gives the standard deviation of the averaged measurements. The list shows a part of the results. Repeats in this data set agree poorly, so a single value says little.

System: A549
Test: surface PD-L1 immunofluorescence intensity relative to IFN-gamma-only control (ratio); higher = more PD-L1 expression
Settings: 10 µM; exposure time 24 h; IFN-gamma 100 ng/mL

| SMILES | surface PD-L1 immunofluorescence intensity |
| --- | --- |
| CNC(=O)CN(CCN(CCN(CC(=O)O)CC(=O)NC)CC(=O)O)CC(=O)O.O.[Gd] [Gadodiamide (Omniscan)] | 0.881 |
| Cc1scc2c1N(C(=O)CN1CCN(C)CC1)c1ccccc1NC2=O [Telenzepine dihydrochloride] | 1.09 ± 0.12 |
| Cn1c(=O)c2nc[nH]c2n(C)c1=O [Theophylline monohydrate] | 1.07 |
| C=C1c2cccc(O)c2C(=O)C2=C(O)[C@]3(O)C(=O)C(C(N)=O)=C(O)[C@@H](N(C)C)[C@@H]3[C@@H](O)[C@H]12 [Methacycline hydrochloride] | 1.07 |
| c1ccc(C2CN3CCSC3=N2)cc1 (configuration not stated) [Tetramisole hydrochloride] | 0.992 |
| c1ccc(C2CN3CCSC3=N2)cc1 (configuration not stated) [Tetramisole HCl] | 0.925 |
| C[C@@H](N)[C@H]1CC[C@H](C(=O)Nc2ccncc2)CC1 | 0.992 and 0.972 |
| CCc1cc(C(C)=O)c(O)cc1OCCCCCC(C)(C)c1nn[nH]n1 | 1 |
| O=C(Cn1ccnc1[N+](=O)[O-])NCCO [Etanidazole] | 1.07 |
| O=c1cc(-c2ccc(O)cc2)oc2cc(O)cc(O)c12 [Apigenin] | 1.05 ± 0.11 |
| CO[C@H]1/C=C/O[C@@]2(C)Oc3c(C)c(O)c4c(c3C2=O)C2=NC3(CCN(CC(C)C)CC3)NC2=C(NC(=O)/C(C)=C\C=C\[C@H](C)[C@H](O)[C@@H](C)[C@@H](O)[C@@H](C)[C@H](OC(C)=O)[C@@H]1C)C4=O [Rifabutin (Mycobutin)] | 1.11 |
| CO[C@H]1/C=C/O[C@@]2(C)Oc3c(C)c(O)c4c(c3C2=O)C2=NC3(CCN(CC(C)C)CC3)NC2=C(NC(=O)/C(C)=C\C=C\[C@H](C)[C@H](O)[C@@H](C)[C@@H](O)[C@@H](C)[C@H](OC(C)=O)[C@@H]1C)C4=O [Rifabutin] | 1.07 |
| C[C@H](NC(=O)c1sccc1OCc1ccc(Cl)cc1)c1ccccc1 | 1 |
| CNc1nc(Nc2cnn([C@H]3CCN(C4COC4)C[C@@H]3F)c2Cl)ncc1C(F)(F)F | 1.07 |
| N#Cc1ccccc1OCC(O)CNCCNC(=O)Nc1ccccc1 (configuration not stated) | 1.03 |
| Clc1ccc(C(Cn2ccnc2)OCc2c(Cl)cccc2Cl)c(Cl)c1 (configuration not stated) [Isoconazole] | 0.946 |
| NC(=O)N1c2ccccc2C=Cc2ccccc21 [Carbamazepine] | 0.847 |
| O=C(CCCCCCNC(=O)c1cnc(N(c2ccccc2)c2ccccc2)nc1)NO [Rocilinostat (ACY-1215)] | 1.07 |
| O=c1ncccn1[C@@H]1O[C@H](CO)[C@@H](O)[C@H]1O [Zebularine] | 1.01 ± 0.094 |

| SMILES | surface PD-L1 immunofluorescence intensity |
| --- | --- |
| CN(C)CCN(Cc1cccs1)c1ccccn1 [Methapyrilene hydrochloride] | 1.09 |
| COc1c(O[C@@H]2O[C@H](CO)[C@@H](O)[C@H](O)[C@H]2O)cc2c(c1OC)-c1ccc(SC)c(=O)cc1[C@@H](NC(C)=O)CC2 [Thiocolchicoside] | 1.01 |
| OC(c1ccccc1)C1CCN(CCc2ccccc2)CC1 (configuration not stated) | 1.07 |
| COc1ccc(NC(=O)c2cc(OCCCN(C)C)nn2Cc2ccccc2)cc1 [CFM 1571 hydrochloride] | 1.13 |
| CC(=O)N[C@@H](CC(C)C)C(=O)O [N-Acetyl-L-leucine] | 1.06 |
| Nc1nc(=O)c2nc(CNc3ccc(C(=O)N[C@@H](CCC(=O)O)C(=O)O)cc3)cnc2[nH]1 [Folic acid] | 0.953 |
| C=C1CC[C@H](O)C/C1=C/C=C1\CCC[C@]2(C)[C@@H]([C@H](C)CCCC(C)(C)O)CC[C@@H]12 [25-Hydroxyvitamin D3] | 0.973 |
| C=C1CC[C@H](O)C/C1=C/C=C1\CCC[C@]2(C)[C@@H]([C@H](C)CCCC(C)(C)O)CC[C@@H]12 [Calcifediol] | 1.03 |
| O=C(NCCS(=O)(=O)c1ccc(C(F)(F)F)cn1)c1ccc(Cl)cc1 | 1.14 |
| Nc1nc(F)nc2c1ncn2[C@@H]1O[C@H](CO)[C@@H](O)[C@@H]1O [Fludarabine] | 0.977 ± 0.031 |
| CC[C@H]1OC(=O)[C@H](C)[C@@H](O[C@H]2C[C@@](C)(OC)[C@@H](O)[C@H](C)O2)[C@H](C)[C@@H](O[C@@H]2O[C@H](C)C[C@H](N(C)C)[C@H]2O)[C@](C)(O)C[C@@H](C)/C(=N\OCOCCOC)[C@H](C)[C@@H](O)[C@]1(C)O [Roxithromycin (Roxl-150)] | 1.02 |
| CC[C@H]1OC(=O)[C@H](C)[C@@H](O[C@H]2C[C@@](C)(OC)[C@@H](O)[C@H](C)O2)[C@H](C)[C@@H](O[C@@H]2O[C@H](C)C[C@H](N(C)C)[C@H]2O)[C@](C)(O)C[C@@H](C)/C(=N\OCOCCOC)[C@H](C)[C@@H](O)[C@]1(C)O [Roxithromycin] | 0.939 |
| O=C1CN2Cc3c(ccc(Cl)c3Cl)N=C2N1 [Anagrelide HCl] | 1.02 |
| CC(C)NCC(O)COc1ccc(COCCOC(C)C)cc1 (configuration not stated) [Bisoprolol fumarate] | 1.13 |
| COc1ccc(-c2cc(=O)c3c(O)cc(O)cc3o2)cc1O [Diosmetin (Luteolin 4-methyl ether)] | 1.19 |
| O=C(NCCNCC(O)COc1ccc(O)cc1)N1CCOCC1 (configuration not stated) [Xamoterol hemifumarate] | 1.07 |
| CN(C)CCOC1=Cc2ccccc2Sc2ccc(Cl)cc21 [Zotepine] | 0.944 |
| CCN(Cc1ccncc1)C(=O)C(CO)c1ccccc1 (configuration not stated) [Tropicamide] | 1.06 |
